Measurements: article PMC9957728

Biological target: T1, UBE2J1 overexpressed from lentivirus in DLD-1 cells (UniProt Q9Y385)
T1 sequence: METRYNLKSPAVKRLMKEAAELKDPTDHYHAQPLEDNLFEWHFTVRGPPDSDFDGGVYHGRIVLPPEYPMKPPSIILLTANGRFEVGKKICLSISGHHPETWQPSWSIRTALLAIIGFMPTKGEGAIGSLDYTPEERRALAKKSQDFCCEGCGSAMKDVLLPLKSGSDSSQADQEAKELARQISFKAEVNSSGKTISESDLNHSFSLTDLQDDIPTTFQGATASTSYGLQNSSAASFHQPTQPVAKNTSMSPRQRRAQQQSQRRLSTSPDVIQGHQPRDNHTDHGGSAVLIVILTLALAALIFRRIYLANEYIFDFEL
Assay: affinity purification with mass spectrometry; immunoprecipitation of UBE2J1 against IgG control from lysate of DLD-1 cells transfected with UBE2J1 overexpression lentivirus; silver staining and mass spectrometry

binding: binds
Substance: TRIM25 (RING-type E3 ubiquitin ligase), endogenous (from UniProt Q14258 1-630) (enzyme)

These are yes or no findings as the source states them, for the method shown. In cells and extracts the contact can be indirect. Here binding means that the protein was enriched with, or labelled near, the bait; the list need not be complete.
